PubChem BioAssay AID504764 – Drosophila RNAi Screening Center | 2011
The deposit covers about 22,000 reagents; this is a random part of those with a known target gene and a result. Over the whole deposit, 403 (1.9%) were called active. 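Unnormalised raw counts per well; ratio z-scores behind the hit calls and whether each hit raises or lowers signal are not deposited.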 A plus sign joins genes that one reagent is predicted to hit. The record does not give: the amount of reagent.

Test: 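Genes whose knock-down alters Notch-dependent transcription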 (primary screen)
Cells: Drosophila Kc167 cells
Reagents: long dsRNA against Drosophila genes
Duration: about 5 days (4 days dsRNA, then 24 h after transfection)
Treatment: transfection of constitutively active membrane-tethered Notch lacking the extracellular domain, read 24 h later
Read-out: 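Light from a Notch-responsive E(spl)m3 luciferase reporter under active Notch, with control-promoter and no-Notch reporter wells to normalise; raw counts from paired wells a and b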
Reading the numbers: induced reporter light, run 1, well a and induced reporter light, run 1, well b: higher = more light from the Notch target reporter with active Notch; control promoter light, run 1, well a and control promoter light, run 1, well b: higher = more light from the viral control promoter (cell number, transfection, viability); uninduced reporter light, run 1, well a: higher = more light from the Notch target reporter without active Notch
Call rule: 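Hit if the duplicate-averaged log2 ratio of induced to control-promoter light gives a plate-wise z beyond ±2, or induced to uninduced beyond ±1.8; weak-control or discordant-duplicate wells dropped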
Calls: active = modifier hit (raised or lowered Notch signal); inactive = not a hit

no.	gene	amplicon	induced reporter light, run 1, well a	induced reporter light, run 1, well b	control promoter light, run 1, well a	control promoter light, run 1, well b	uninduced reporter light, run 1, well a	outcome
1	pit (GeneID 42595)	DRSC17025	1.77e5	2.07e5	2.06e5	1.99e5	10915	inactive
2	CG5404 (GeneID 41901)	DRSC15793	1.79e5	1.77e5	1.35e5	1.42e5	12740	inactive
3	Bet1 (GeneID 40094)	DRSC10088	1.05e5	92920	1.03e5	80620	5665	inactive
4	RfC3 (GeneID 34423)	DRSC03411	1.50e5	1.64e5	73810	86445	18370	inactive
5	CG42538 (GeneID 8673985)	DRSC09412	1.50e5	1.82e5	2.43e5	2.88e5	15450	inactive
6	RpL13A (GeneID 40687)	DRSC12265	41890	61740	47360	48445	3310	inactive
7	CycE (GeneID 34924)	DRSC03295	1.96e5	1.65e5	1.11e5	1.29e5	15930	inactive
8	CycE (GeneID 34924)	DRSC03296	96725	1.12e5	81590	1.07e5	8365	inactive
9	CG14323 (GeneID 42121)	DRSC14802	2.69e5	2.80e5	2.65e5	2.83e5	25950	inactive
10	CG10631 (GeneID 35262)	DRSC02081	1.71e5	1.85e5	1.26e5	1.24e5	11985	inactive
11	eEF1delta (GeneID 34363)	DRSC02790	1.65e5	1.54e5	1.43e5	1.40e5	12570	inactive
12	Fip1 (GeneID 40569)	DRSC12147	83240	76995	43890	54410	6510	inactive
13	alpha-PheRS (GeneID 31740)	DRSC18224	1.29e5	1.43e5	1.96e5	2.21e5	7565	inactive
14	croc (GeneID 40374)	DRSC11884	1.46e5	1.14e5	1.15e5	99175	9675	inactive
15	CG9951 (GeneID 39888)	DRSC11105	1.16e5	1.36e5	88125	1.02e5	12085	inactive
16	ABCB7 (GeneID 38193)	DRSC08603	85930	1.18e5	2.11e5	1.60e5	5610	inactive
17	CG17982 (GeneID 31739)	DRSC18143	1.30e5	1.28e5	2.36e5	2.14e5	10460	inactive
18	CG17325 + CG42305	DRSC02602	43030	33805	41710	34090	3375	inactive
19	Grx1t (GeneID 37483)	DRSC04530	33710	36640	31295	30520	2380	inactive
20	CG5863 (GeneID 42096)	DRSC15898	2.02e5	2.24e5	2.01e5	1.75e5	16115	inactive
21	JMJD5 (GeneID 38097)	DRSC08372	1.95e5	1.64e5	2.09e5	2.38e5	7778	inactive
22	mRpL50 (GeneID 38796)	DRSC11015	1.67e5	1.15e5	88935	47585	10500	inactive
23	CycC (GeneID 41801)	DRSC16619	1.00e5	90195	81940	80845	9505	inactive
24	CG32633 (GeneID 326225)	DRSC18987	1.14e5	1.22e5	1.04e5	1.02e5	8265	inactive

Next part; the last 4 above are carried over.
no.	gene	amplicon	induced reporter light, run 1, well a	induced reporter light, run 1, well b	control promoter light, run 1, well a	control promoter light, run 1, well b	uninduced reporter light, run 1, well a	outcome
21	JMJD5 (GeneID 38097)	DRSC08372	1.95e5	1.64e5	2.09e5	2.38e5	7778	inactive
22	mRpL50 (GeneID 38796)	DRSC11015	1.67e5	1.15e5	88935	47585	10500	inactive
23	CycC (GeneID 41801)	DRSC16619	1.00e5	90195	81940	80845	9505	inactive
24	CG32633 (GeneID 326225)	DRSC18987	1.14e5	1.22e5	1.04e5	1.02e5	8265	inactive
25	Ipk2 (GeneID 33236)	DRSC00357	1.24e5	86230	86685	40685	7390	inactive
26	CG7049 (GeneID 38022)	DRSC08587	50265	44245	67175	64760	3170	inactive
27	CG14269 (GeneID 31312)	DRSC17912	1.09e5	1.10e5	1.94e5	1.84e5	7975	inactive
28	CG14352 (GeneID 33341)	DRSC00382	1.58e5	1.10e5	1.09e5	92130	10735	inactive
29	NimB5 (GeneID 34815)	DRSC01885	1.26e5	1.32e5	1.67e5	1.81e5	11425	inactive
30	Obp56b (GeneID 37265)	DRSC06551	1.50e5	91480	99575	1.04e5	11270	inactive
31	Plekhm1 (GeneID 37520)	DRSC04527	40285	33995	40530	43255	1735	inactive
32	Bka (GeneID 46032)	DRSC02757	1.27e5	1.51e5	80285	1.09e5	17020	inactive
33	hpRNA:CR32207 (GeneID 10178801)	DRSC09616	2.01e5	1.91e5	2.92e5	2.25e5	17700	inactive
34	ND-20 (GeneID 32565)	DRSC20164	1.78e5	1.45e5	1.77e5	1.76e5	11895	inactive
35	CG33914 (GeneID 3772464)	DRSC05033	54335	62905	86655	1.11e5	5315	inactive
36	NetA (GeneID 32398)	DRSC20261	67890	64830	1.08e5	76085	12738	inactive
37	Mpcp2 (GeneID 39587)	DRSC11226	1.05e5	82945	1.52e5	1.34e5	4765	inactive
38	Cyp28d2 (GeneID 33748)	DRSC03299	98225	70605	90175	79810	5840	inactive
39	Prx1 (GeneID 39658)	DRSC10741	1.72e5	1.99e5	2.34e5	2.03e5	11970	inactive
40	Syx7 (GeneID 36173)	DRSC11763	1.14e5	1.83e5	1.07e5	1.33e5	12015	inactive
41	Egm (GeneID 36242)	DRSC07319	1.57e5	1.55e5	1.75e5	1.56e5	13520	inactive
42	mon2 (GeneID 326157)	DRSC03112	1.78e5	2.08e5	1.01e5	1.46e5	23270	inactive
43	CG4983 (GeneID 34585)	DRSC02799	2.20e5	2.43e5	2.07e5	1.89e5	16180	inactive
44	Droj2 (GeneID 41646)	DRSC16450	1.30e5	1.60e5	77400	60795	7460	inactive
45	gukh (GeneID 53563)	DRSC14768	2.90e5	2.66e5	3.12e5	2.83e5	17620	inactive
46	gukh (GeneID 53563)	DRSC15806	1.97e5	1.62e5	1.86e5	1.86e5	12332	inactive
47	gukh (GeneID 53563)	DRSC15944	1.82e5	1.80e5	2.19e5	2.45e5	14032	inactive
48	CG9184 (GeneID 38152)	DRSC08636	1.78e5	1.69e5	2.46e5	2.59e5	11250	inactive
49	CG9184 (GeneID 38152)	DRSC22184						inactive
50	CG40551 (retired record) (GeneID 5740872)	DRSC21229	75250	64930	84410	82565	5340	inactive
51	rdgB (GeneID 32340)	DRSC20365	1.76e5	1.69e5	3.07e5	2.57e5	12955	inactive
52	CG7560 (GeneID 39276)	DRSC10879	98400	82190	1.03e5	1.07e5	6130	inactive
53	CG7322 (GeneID 32880)	DRSC20036	1.16e5	1.08e5	1.11e5	1.25e5	9480	inactive
54	CG1494 (GeneID 33102)	DRSC20509	95210	88845	1.14e5	1.05e5	10605	inactive
55	CG9649 (GeneID 41727)	DRSC16534	1.46e5	1.12e5	87515	96180	9245	inactive
56	CG2150 (GeneID 43745)	DRSC15420	1.86e5	1.80e5	2.51e5	3.05e5	11550	inactive
57	CG17752 (GeneID 42337)	DRSC15262	1.83e5	1.62e5	1.76e5	1.87e5	12428	inactive
58	Art8 (GeneID 34528)	DRSC02530	1.05e5	1.28e5	56025	79335	15245	inactive
59	CG3253 (GeneID 37861)	DRSC04350	1.04e5	93535	66600	67860	7465	inactive
60	CG7362 (GeneID 41787)	DRSC16236	2.03e5	1.92e5	1.85e5	1.94e5	14270	inactive
61	sals (GeneID 41377)	DRSC14925	1.14e5	1.17e5	89430	67785	9428	inactive
62	sals (GeneID 41377)	DRSC16113	64260	52710	98450	50855	4005	inactive
63	Atg8b (GeneID 42132)	DRSC14501	2.29e5	1.87e5	2.15e5	2.29e5	13982	inactive
64	PhKgamma (GeneID 32120)	DRSC20268	2.11e5	2.15e5	2.29e5	2.33e5	14150	inactive
